The values that follow come from the supplement of paper PMC7666118.

Sequences of proteins named here, by UniProt entry; tags and fusion partners are left off. A change or cut given only in a name is not applied to a line headed by its entry.
UniProt P31483: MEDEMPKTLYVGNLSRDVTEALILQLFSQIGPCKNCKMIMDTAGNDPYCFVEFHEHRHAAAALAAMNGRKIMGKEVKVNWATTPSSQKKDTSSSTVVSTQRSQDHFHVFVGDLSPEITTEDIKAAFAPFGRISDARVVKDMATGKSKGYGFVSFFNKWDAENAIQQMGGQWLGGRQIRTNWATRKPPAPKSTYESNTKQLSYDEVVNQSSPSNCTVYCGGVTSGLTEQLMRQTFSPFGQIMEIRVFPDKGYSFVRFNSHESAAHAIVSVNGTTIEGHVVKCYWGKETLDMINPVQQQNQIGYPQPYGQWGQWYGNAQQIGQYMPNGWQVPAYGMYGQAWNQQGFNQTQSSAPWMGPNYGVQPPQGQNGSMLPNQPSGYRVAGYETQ
UniProt Q4KMP7: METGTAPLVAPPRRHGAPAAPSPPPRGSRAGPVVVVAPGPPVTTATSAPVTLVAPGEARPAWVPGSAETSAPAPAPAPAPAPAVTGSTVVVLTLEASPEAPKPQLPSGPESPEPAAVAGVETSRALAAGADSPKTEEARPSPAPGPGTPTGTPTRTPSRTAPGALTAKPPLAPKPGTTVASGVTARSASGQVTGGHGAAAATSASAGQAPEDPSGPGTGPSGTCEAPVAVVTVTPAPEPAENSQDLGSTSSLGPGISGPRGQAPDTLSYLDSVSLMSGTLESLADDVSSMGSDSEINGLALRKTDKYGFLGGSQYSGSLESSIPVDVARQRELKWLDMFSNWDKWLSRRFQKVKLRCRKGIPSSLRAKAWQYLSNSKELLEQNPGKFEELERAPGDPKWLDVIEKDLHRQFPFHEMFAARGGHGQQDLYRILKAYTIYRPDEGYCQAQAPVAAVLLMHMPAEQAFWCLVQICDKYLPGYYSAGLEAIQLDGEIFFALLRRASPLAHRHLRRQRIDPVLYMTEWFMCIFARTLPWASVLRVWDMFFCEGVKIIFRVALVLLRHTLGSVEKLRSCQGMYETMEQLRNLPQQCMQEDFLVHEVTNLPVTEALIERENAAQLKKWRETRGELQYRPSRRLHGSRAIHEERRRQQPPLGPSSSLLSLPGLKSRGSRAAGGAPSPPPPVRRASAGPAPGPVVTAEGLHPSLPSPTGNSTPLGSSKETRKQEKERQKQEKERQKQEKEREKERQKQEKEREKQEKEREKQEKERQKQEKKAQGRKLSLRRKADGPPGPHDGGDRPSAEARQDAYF
UniProt Q8NDV7: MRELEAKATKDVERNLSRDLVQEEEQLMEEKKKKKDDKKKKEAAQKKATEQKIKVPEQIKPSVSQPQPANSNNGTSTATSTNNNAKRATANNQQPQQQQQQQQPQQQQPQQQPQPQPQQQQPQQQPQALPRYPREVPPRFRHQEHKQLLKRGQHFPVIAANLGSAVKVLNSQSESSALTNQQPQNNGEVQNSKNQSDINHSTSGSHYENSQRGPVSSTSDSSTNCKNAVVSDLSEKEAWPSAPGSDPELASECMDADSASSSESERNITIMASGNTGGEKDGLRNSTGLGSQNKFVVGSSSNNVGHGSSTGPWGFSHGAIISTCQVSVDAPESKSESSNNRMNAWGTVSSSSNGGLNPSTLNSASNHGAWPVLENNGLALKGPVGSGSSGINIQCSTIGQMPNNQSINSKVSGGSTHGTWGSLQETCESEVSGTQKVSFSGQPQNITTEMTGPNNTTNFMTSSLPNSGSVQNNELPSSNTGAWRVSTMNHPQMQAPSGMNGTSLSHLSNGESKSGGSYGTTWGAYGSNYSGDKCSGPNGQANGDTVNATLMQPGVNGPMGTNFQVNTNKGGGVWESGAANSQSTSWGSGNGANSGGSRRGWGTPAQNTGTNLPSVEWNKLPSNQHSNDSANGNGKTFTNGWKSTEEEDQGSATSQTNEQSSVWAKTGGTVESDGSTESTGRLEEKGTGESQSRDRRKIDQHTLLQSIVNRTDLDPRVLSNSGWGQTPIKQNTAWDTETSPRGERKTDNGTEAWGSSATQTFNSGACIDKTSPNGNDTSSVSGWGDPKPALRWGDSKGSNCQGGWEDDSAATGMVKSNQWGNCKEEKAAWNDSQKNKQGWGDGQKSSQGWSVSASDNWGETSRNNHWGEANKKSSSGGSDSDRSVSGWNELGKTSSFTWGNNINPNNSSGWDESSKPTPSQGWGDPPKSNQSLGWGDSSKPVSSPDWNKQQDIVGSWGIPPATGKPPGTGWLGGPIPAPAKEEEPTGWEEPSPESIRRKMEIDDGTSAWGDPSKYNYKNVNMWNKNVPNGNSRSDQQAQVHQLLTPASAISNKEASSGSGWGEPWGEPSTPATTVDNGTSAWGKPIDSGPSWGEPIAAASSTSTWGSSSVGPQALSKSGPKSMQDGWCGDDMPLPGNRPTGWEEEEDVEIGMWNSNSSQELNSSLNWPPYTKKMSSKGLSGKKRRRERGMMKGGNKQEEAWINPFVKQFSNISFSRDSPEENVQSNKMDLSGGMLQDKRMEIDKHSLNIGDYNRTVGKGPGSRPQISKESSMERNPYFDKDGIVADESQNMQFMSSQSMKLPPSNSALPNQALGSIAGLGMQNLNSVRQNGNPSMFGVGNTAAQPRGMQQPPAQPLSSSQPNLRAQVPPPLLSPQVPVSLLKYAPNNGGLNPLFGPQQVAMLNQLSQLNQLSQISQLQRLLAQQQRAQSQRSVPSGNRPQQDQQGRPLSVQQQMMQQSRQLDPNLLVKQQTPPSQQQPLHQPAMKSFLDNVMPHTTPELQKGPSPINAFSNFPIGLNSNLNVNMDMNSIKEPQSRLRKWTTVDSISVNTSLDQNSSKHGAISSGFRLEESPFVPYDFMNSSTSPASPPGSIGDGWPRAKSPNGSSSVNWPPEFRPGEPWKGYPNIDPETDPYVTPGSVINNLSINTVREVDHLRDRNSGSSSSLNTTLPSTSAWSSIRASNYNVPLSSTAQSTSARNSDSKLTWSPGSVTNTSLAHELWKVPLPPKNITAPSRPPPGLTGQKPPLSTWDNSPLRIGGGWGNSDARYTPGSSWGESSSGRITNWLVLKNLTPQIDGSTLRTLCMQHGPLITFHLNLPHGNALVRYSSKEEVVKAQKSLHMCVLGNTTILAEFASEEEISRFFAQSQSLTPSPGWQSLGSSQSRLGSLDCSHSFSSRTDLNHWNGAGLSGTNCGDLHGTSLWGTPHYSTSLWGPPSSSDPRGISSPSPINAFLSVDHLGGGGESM
UniProt P51580: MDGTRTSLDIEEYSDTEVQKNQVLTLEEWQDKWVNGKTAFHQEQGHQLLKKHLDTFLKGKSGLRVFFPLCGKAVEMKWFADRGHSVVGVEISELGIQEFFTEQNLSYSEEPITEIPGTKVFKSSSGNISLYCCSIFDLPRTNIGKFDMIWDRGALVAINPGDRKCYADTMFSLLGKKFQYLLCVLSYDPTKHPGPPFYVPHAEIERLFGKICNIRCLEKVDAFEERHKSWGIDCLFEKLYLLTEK
UniProt O75663: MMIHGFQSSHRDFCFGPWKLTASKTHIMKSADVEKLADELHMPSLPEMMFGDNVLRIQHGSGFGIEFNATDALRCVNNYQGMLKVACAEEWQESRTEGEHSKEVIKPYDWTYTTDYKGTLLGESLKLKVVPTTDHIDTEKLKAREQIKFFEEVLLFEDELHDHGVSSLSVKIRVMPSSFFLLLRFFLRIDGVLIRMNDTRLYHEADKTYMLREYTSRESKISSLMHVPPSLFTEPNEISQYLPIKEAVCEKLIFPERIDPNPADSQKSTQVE
UniProt Q9BTV4: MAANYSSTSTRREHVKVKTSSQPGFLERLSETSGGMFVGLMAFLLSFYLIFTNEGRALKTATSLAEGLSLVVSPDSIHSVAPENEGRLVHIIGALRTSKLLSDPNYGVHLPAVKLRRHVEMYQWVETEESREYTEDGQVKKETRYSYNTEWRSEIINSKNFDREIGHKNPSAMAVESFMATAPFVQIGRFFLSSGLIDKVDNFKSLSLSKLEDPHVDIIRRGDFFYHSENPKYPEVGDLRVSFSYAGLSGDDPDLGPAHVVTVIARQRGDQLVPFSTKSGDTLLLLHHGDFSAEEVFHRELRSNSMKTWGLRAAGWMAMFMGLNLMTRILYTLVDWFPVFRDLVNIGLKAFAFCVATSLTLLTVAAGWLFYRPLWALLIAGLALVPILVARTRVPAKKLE
UniProt Q9NVH6: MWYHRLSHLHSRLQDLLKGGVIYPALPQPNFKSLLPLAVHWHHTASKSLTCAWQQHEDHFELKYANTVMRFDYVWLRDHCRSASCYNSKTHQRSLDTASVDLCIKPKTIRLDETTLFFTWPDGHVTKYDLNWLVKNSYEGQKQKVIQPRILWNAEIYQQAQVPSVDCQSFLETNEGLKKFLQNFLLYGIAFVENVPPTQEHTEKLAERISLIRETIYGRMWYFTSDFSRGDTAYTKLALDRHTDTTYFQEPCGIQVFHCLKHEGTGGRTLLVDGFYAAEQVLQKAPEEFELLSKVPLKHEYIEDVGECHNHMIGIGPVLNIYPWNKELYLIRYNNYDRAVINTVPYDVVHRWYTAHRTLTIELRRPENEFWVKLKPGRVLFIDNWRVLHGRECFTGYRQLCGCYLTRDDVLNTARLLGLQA
UniProt Q5SNT2: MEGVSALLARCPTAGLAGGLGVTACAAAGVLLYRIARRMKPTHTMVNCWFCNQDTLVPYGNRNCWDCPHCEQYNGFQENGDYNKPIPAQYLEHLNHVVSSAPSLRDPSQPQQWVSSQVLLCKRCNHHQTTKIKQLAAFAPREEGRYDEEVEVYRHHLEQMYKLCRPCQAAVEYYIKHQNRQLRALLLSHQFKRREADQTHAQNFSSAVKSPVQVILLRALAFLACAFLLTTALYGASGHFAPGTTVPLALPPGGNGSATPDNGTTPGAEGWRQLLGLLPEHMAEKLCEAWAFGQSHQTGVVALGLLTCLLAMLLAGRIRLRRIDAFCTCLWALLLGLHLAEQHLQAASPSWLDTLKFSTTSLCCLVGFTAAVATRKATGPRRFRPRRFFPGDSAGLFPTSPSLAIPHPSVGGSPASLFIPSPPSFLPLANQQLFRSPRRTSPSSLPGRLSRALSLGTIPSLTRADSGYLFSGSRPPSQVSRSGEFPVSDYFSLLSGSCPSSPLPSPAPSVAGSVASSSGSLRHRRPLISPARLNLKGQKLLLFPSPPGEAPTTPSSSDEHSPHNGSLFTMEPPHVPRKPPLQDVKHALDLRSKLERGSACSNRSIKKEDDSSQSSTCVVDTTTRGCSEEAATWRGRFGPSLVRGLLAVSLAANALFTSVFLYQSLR
UniProt Q6UX65: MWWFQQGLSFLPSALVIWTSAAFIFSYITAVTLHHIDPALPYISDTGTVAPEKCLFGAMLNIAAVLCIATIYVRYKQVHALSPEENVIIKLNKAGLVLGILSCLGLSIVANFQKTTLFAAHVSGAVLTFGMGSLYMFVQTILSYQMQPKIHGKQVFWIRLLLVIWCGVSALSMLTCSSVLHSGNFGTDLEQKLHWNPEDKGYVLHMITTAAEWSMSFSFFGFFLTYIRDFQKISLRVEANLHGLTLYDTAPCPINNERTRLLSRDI
UniProt O60784, whole entry: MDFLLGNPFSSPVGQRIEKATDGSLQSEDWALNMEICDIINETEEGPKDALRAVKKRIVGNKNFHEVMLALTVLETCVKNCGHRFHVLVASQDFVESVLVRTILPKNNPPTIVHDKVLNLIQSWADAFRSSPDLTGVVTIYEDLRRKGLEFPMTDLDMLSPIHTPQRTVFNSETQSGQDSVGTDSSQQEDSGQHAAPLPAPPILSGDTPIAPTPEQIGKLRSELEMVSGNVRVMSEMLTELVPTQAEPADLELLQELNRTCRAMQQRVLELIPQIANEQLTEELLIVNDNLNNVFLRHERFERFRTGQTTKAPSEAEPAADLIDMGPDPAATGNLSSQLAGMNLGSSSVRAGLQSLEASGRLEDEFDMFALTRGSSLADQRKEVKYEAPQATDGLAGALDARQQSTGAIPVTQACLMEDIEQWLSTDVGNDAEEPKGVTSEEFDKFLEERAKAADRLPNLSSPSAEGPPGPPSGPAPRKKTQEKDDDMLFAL
UniProt Q9H0R3: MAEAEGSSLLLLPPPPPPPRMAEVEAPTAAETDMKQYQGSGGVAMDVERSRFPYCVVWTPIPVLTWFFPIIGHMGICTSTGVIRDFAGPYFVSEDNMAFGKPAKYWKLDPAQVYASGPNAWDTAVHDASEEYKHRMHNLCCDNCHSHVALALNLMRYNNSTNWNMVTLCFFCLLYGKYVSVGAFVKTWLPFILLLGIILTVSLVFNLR
UniProt Q5SWH9: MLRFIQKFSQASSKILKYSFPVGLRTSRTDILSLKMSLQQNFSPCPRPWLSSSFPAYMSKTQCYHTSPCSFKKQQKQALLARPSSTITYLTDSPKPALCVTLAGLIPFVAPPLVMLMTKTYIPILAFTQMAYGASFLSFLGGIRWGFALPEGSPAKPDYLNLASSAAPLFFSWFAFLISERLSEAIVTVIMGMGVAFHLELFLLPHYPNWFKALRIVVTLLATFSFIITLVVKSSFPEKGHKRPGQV
UniProt Q9Y5J9: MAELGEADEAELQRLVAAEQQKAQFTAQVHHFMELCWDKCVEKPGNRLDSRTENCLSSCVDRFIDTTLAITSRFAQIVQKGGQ

The other results are listed elsewhere or left out.

Compound in the test: COc1ccc(Cn2ccc3ccc(C(=O)NO)cc32)cc1
Description: dose-dependent thermal stabilisation call (2D-TPP, DLPTP, 10% FDR) (binary (1 = stabilised)); higher = stabilised by the compound. The note with it: system: HL-60 intact cells; concentration range 0.04-10 µM.
TOMM34 (UniProt Q15785): the “dose-dependent thermal stabilisation call” value was inactive: 0.

Regarding TMEM115 (UniProt Q12893), the “dose-dependent thermal stabilisation call” value was inactive: 0.

Turning to TNPO1 (UniProt Q92973), the “dose-dependent thermal stabilisation call” value was inactive: 0.

Take TBCC (UniProt Q15814): the “dose-dependent thermal stabilisation call” value was inactive: 0.

Turning to TMEM134 (UniProt Q9H6X4), the “dose-dependent thermal stabilisation call” value is inactive: 0.

As for TIA1 (UniProt P31483), the “dose-dependent thermal stabilisation call” value is inactive: 0.

For TBC1D5 (UniProt Q92609), the “dose-dependent thermal stabilisation call” value is inactive: 0.

Turning to TBC1D10B (UniProt Q4KMP7), the “dose-dependent thermal stabilisation call” value was inactive: 0.

For TIMM23B (UniProt Q5SRD1), the “dose-dependent thermal stabilisation call” value was inactive: 0.

Regarding TNRC6A (UniProt Q8NDV7), the “dose-dependent thermal stabilisation call” value was inactive: 0.

Take TPMT (UniProt P51580): the “dose-dependent thermal stabilisation call” value was active: 1.

Consider TIPRL (UniProt O75663), for which the “dose-dependent thermal stabilisation call” value was inactive: 0.

Turning to TMEM43 (UniProt Q9BTV4), the “dose-dependent thermal stabilisation call” value was inactive: 0.

For TFAM (UniProt Q00059), the “dose-dependent thermal stabilisation call” value was inactive: 0.

Regarding THOP1 (UniProt P52888), the “dose-dependent thermal stabilisation call” value is inactive: 0.

On to TMLHE (UniProt Q9NVH6), for which the “dose-dependent thermal stabilisation call” value is inactive: 0.

TBC1D1 (UniProt Q86TI0): the “dose-dependent thermal stabilisation call” value is inactive: 0.

In the case of TMEM201 (UniProt Q5SNT2), the “dose-dependent thermal stabilisation call” value is inactive: 0.

For TNIP1 (UniProt Q15025), the “dose-dependent thermal stabilisation call” value is inactive: 0.

For the target TATDN2 (UniProt Q93075), the “dose-dependent thermal stabilisation call” value was inactive: 0.

In the case of TOR1AIP2, the “dose-dependent thermal stabilisation call” value was inactive: 0.

As to TMEM77 (UniProt Q6UX65), the “dose-dependent thermal stabilisation call” value was inactive: 0.

Consider THOC4 (UniProt Q86V81), for which the “dose-dependent thermal stabilisation call” value was inactive: 0.

Regarding TOM1 (UniProt O60784), the “dose-dependent thermal stabilisation call” value is inactive: 0.

For TGFB1 (UniProt P01137), the “dose-dependent thermal stabilisation call” value was inactive: 0.

On to TMEM222 (UniProt Q9H0R3), for which the “dose-dependent thermal stabilisation call” value was inactive: 0.

For the target TP53BP2 (UniProt Q13625), the “dose-dependent thermal stabilisation call” value was inactive: 0.

Take TFRC (UniProt P02786): the “dose-dependent thermal stabilisation call” value was inactive: 0.

TNIK (UniProt Q9UKE5): the “dose-dependent thermal stabilisation call” value is inactive: 0.

On to TMEM181 (UniProt Q9P2C4), for which the “dose-dependent thermal stabilisation call” value was inactive: 0.

As to TIMELESS (UniProt Q9UNS1), the “dose-dependent thermal stabilisation call” value is inactive: 0.

Regarding TMEM69 (UniProt Q5SWH9), the “dose-dependent thermal stabilisation call” value is inactive: 0.

For THG1L (UniProt Q9NWX6), the “dose-dependent thermal stabilisation call” value was inactive: 0.

Consider TBRG4 (UniProt Q969Z0), for which the “dose-dependent thermal stabilisation call” value is inactive: 0.

For TKT (UniProt P29401), the “dose-dependent thermal stabilisation call” value was inactive: 0.

As for TIMM8B (UniProt Q9Y5J9), the “dose-dependent thermal stabilisation call” value was inactive: 0.

As for TBC1D23 (UniProt Q9NUY8), the “dose-dependent thermal stabilisation call” value was inactive: 0.
